From the supplement of paper PMC7666118
This is one part of the list.

By UniProt entry, the sequences of proteins in these tests, tags left out. Where a name states a change or a piece, a line headed by the entry shows the natural chain unless it says otherwise.
UniProt Q8TBF4: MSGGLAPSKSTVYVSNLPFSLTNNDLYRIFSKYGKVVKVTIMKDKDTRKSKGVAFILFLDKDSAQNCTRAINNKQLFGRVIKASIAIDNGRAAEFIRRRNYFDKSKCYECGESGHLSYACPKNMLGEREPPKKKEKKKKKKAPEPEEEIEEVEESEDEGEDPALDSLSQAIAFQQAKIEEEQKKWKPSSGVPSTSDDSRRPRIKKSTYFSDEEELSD
UniProt Q9H773: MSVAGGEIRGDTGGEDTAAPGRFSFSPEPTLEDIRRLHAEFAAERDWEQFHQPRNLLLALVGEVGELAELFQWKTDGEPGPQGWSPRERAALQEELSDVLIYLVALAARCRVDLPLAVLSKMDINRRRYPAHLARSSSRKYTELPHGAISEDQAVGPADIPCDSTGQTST
UniProt Q9P0L0: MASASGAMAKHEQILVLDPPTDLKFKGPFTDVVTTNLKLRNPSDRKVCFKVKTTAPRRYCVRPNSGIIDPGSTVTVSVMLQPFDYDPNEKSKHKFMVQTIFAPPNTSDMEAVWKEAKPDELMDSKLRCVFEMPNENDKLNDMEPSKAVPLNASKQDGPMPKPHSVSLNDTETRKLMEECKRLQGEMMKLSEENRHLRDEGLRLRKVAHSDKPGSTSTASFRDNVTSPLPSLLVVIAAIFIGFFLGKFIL
UniProt P30291: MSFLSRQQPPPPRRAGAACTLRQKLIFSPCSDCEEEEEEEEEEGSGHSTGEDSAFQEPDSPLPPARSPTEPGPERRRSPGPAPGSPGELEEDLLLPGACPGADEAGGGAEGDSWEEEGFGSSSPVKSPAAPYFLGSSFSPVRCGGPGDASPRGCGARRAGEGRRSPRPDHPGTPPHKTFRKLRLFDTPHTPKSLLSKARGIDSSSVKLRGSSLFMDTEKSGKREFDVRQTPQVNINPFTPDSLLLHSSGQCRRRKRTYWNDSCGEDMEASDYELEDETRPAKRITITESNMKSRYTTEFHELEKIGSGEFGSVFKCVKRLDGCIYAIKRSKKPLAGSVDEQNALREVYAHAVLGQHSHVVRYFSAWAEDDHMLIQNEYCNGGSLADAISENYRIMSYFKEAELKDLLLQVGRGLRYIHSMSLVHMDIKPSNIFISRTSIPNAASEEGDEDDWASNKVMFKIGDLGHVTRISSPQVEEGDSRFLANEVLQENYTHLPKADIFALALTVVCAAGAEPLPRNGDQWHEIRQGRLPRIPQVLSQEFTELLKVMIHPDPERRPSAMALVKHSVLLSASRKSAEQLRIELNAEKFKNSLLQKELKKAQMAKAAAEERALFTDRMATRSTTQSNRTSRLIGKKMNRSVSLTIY
UniProt Q562E7: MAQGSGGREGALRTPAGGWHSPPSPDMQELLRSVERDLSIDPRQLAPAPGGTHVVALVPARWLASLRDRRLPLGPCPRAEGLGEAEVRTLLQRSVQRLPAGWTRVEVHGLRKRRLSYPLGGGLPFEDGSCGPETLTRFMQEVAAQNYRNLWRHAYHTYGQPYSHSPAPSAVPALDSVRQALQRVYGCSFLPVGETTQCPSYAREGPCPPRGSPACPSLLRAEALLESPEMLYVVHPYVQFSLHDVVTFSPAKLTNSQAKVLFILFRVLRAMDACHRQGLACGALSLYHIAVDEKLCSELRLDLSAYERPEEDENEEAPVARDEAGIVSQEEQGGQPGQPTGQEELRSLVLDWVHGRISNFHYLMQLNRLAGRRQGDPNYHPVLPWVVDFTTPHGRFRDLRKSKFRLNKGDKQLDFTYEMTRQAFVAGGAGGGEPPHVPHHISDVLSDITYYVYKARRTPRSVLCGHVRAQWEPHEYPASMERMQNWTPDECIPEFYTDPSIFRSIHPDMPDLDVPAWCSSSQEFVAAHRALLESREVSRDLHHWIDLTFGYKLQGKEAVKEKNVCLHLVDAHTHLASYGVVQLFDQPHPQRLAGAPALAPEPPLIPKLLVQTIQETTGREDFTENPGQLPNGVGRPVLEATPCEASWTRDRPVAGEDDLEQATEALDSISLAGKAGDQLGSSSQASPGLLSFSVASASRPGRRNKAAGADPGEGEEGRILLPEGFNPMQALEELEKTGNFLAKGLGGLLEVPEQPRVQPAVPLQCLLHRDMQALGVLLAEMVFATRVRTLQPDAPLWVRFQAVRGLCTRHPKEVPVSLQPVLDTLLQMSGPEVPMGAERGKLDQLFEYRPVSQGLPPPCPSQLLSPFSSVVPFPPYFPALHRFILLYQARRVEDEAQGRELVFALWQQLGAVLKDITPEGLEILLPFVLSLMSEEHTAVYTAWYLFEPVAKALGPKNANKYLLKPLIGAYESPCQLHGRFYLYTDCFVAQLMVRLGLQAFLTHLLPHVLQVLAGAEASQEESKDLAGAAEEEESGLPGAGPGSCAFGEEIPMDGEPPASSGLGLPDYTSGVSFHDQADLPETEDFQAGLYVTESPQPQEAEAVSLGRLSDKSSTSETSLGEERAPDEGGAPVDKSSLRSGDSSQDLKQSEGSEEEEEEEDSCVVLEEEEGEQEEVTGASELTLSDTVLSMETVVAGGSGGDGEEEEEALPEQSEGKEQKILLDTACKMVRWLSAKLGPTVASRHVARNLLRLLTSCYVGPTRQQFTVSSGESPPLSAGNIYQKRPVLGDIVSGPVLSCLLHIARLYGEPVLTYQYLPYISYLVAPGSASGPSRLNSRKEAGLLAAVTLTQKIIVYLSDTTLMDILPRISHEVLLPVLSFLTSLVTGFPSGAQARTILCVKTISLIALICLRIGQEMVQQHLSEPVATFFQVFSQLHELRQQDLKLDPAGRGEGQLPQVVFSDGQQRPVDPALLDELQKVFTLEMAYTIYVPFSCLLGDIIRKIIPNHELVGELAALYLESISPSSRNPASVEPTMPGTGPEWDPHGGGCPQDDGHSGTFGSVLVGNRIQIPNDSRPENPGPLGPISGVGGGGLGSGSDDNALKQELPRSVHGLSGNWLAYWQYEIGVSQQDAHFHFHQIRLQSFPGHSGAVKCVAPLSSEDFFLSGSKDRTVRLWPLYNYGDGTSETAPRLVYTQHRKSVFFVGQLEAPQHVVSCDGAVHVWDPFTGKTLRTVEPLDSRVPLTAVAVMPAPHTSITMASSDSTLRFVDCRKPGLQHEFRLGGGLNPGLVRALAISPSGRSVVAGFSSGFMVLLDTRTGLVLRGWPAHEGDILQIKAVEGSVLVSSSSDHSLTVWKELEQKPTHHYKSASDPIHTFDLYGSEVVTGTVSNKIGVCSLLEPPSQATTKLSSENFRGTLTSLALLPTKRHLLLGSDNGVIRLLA
UniProt Q9BSR8: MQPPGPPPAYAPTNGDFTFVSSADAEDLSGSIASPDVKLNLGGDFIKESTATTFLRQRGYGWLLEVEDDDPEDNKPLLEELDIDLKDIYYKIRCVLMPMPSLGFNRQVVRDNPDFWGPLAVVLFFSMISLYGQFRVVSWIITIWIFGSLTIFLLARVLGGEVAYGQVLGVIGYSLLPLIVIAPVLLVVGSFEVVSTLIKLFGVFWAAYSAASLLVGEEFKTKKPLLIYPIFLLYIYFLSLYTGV
UniProt Q15072: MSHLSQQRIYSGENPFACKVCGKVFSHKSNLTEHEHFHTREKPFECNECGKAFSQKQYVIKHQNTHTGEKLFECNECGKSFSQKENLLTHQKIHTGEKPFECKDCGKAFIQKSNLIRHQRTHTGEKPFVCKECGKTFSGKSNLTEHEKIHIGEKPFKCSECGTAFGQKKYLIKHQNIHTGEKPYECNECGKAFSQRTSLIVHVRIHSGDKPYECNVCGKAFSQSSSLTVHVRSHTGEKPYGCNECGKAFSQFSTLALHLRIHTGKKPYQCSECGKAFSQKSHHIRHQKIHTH
UniProt P51811: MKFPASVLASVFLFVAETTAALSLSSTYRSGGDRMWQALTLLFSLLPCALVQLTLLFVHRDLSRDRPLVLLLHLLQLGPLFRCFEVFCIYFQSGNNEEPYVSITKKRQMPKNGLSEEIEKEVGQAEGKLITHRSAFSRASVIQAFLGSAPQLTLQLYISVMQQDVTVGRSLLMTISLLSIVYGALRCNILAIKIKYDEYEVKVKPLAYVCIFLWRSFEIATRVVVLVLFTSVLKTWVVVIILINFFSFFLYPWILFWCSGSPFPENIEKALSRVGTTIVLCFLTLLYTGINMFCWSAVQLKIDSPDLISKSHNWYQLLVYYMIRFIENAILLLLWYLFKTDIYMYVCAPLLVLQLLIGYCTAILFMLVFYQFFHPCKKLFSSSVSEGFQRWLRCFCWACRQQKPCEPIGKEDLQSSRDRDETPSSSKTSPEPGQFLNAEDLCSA
UniProt P47974: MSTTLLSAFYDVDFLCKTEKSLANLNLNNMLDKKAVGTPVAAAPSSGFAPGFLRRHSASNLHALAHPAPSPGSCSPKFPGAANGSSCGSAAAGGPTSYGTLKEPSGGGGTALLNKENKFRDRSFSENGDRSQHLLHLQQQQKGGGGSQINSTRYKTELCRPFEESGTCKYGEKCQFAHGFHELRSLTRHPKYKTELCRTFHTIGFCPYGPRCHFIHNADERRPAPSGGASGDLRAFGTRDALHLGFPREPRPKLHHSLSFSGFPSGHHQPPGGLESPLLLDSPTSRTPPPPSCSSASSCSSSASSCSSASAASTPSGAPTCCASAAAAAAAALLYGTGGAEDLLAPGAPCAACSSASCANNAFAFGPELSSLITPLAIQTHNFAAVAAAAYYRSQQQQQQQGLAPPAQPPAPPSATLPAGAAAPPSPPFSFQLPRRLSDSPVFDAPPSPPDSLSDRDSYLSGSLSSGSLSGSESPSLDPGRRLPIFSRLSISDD
UniProt Q8IWR0: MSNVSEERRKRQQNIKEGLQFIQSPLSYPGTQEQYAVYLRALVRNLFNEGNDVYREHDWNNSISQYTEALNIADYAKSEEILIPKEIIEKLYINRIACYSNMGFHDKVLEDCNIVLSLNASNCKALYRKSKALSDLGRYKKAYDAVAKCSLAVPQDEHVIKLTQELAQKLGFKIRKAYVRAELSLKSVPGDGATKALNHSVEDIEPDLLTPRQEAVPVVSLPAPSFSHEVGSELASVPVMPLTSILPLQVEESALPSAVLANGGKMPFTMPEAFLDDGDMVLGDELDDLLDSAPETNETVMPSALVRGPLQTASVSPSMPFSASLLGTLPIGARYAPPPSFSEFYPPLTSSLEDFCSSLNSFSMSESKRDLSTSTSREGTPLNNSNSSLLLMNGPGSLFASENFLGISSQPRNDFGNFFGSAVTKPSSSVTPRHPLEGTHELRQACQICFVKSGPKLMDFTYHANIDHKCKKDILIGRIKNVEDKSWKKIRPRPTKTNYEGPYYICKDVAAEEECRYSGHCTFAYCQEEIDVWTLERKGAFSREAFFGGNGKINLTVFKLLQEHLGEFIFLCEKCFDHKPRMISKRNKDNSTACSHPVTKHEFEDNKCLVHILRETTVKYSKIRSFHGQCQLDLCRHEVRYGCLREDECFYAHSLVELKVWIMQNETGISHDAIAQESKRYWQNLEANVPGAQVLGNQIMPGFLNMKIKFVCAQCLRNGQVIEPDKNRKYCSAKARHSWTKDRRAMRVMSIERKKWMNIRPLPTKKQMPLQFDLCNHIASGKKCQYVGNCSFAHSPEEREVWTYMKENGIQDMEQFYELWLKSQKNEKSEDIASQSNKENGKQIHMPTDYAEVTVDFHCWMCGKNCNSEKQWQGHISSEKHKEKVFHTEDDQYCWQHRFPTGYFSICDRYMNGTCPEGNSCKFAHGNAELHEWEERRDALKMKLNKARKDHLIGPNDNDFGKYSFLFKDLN
UniProt Q5BJH7: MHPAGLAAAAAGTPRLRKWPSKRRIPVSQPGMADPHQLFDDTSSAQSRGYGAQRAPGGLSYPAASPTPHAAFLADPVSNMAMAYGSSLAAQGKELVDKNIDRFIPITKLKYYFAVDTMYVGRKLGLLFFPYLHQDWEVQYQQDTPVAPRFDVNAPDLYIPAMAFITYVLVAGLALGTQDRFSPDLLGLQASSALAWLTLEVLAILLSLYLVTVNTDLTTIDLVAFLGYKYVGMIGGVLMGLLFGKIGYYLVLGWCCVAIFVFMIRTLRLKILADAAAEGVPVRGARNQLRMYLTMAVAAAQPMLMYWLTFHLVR
UniProt Q8NBZ7: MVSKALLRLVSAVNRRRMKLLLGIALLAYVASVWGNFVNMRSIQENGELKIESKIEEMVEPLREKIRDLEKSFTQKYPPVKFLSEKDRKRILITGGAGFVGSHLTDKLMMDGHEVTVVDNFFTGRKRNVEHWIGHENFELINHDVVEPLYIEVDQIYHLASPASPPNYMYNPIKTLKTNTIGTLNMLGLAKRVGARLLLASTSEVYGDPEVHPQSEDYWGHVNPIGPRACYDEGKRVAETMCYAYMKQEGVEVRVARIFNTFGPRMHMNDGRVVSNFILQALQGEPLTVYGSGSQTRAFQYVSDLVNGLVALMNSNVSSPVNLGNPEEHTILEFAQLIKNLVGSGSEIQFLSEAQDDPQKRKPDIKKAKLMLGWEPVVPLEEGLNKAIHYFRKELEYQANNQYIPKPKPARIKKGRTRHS

compound: COc1ccc(Cn2ccc3ccc(C(=O)NO)cc32)cc1; test: dose-dependent thermal stabilisation call (2D-TPP, DLPTP, 10% FDR) (binary (1 = stabilised)); higher = stabilised by the compound; conditions: system: HL-60 intact cells; concentration range 0.04-10 µM

Target | dose-dependent thermal stabilisation call
ZCRB1 (UniProt Q8TBF4) | inactive: 0
VGLL4 (UniProt Q14135) | inactive: 0
YARS (UniProt P54577) | inactive: 0
VPS35 (UniProt Q96QK1) | inactive: 0
WDR75 (UniProt Q8IWA0) | inactive: 0
UTP20 (UniProt O75691) | inactive: 0
XTP3TPA (UniProt Q9H773) | inactive: 0
VAPA (UniProt Q9P0L0) | inactive: 0
WEE1 (UniProt P30291) | inactive: 0
WDR3 (UniProt Q9UNX4) | inactive: 0
WDR81 (UniProt Q562E7) | inactive: 0
VTI1B (UniProt Q9UEU0) | inactive: 0
VEZT (UniProt Q9HBM0) | inactive: 0
YIPF4 (UniProt Q9BSR8) | inactive: 0
ZNF146 (UniProt Q15072) | inactive: 0
XK (UniProt P51811) | inactive: 0
WDR79 (UniProt Q9BUR4) | inactive: 0
ZCCHC9 (UniProt Q8N567) | inactive: 0
VPS37C (UniProt A5D8V6) | inactive: 0
WDR23 (UniProt Q8TEB1) | inactive: 0
ZFP36L2 (UniProt P47974) | inactive: 0
WDFY1 (UniProt Q8IWB7) | inactive: 0
ZC3H7A (UniProt Q8IWR0) | inactive: 0
XPNPEP1 (UniProt Q9NQW7) | inactive: 0
YIF1B (UniProt Q5BJH7) | inactive: 0
UXS1 (UniProt Q8NBZ7) | inactive: 0
WDR11 (UniProt Q9BZH6) | inactive: 0

As entered above:
Under dose-dependent thermal stabilisation call, VPS35 (UniProt Q96QK1) has the entry inactive: 0
Under dose-dependent thermal stabilisation call, ZNF146 (UniProt Q15072) has the entry inactive: 0
